Laboratory results reported in patent US5620959A (Glaxo Wellcome Inc., priority 1990, dated 1997).

Experiment: general procedure: Boc solid-phase peptide synthesis; p-methylbenzhydrylamine (MBHA) resin, Advanced Chemtech, 0.90-0.97 meq/g; BOP, 4-Methylmorpholine
Conditions: purification step, based on HPLC

## PEPTIDE1{[PhPr].H.W.A.V.[dA].H.[D-Propsi].F.[am]}$$$$V2.0
  step yield: 12% yield based on HPLC

HELM strings list residues between dots; [ac] is acetyl, [am] amide, other brackets name non-standard units.
